Measurements: US20240425571A1, “GLYCOPROTEIN A REPETITIONS PREDOMINANT (GARP)-BINDING ANTIBODIES AND USES THEREOF” (OHIO STATE INNOVATION FOUNDATION, priority 2021, published 2024)
Results are given in words; binding and its absence hold for the method and conditions named. Some binding calls cover weakened binding; strength is not graded here.

Sequences of proteins named here, by UniProt entry; tags and fusion partners are left off. Residues count along the entry.
UniProt P04202, residues 30-278: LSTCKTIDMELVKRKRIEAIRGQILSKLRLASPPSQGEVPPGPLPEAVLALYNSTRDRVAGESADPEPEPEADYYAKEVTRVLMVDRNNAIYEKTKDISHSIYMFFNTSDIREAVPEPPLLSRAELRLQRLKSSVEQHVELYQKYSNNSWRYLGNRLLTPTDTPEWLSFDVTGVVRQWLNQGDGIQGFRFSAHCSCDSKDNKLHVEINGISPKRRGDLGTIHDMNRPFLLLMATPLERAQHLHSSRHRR

Target: T1, mouse GARP (mouse) (UniProt G3XA59)
T1 sequence: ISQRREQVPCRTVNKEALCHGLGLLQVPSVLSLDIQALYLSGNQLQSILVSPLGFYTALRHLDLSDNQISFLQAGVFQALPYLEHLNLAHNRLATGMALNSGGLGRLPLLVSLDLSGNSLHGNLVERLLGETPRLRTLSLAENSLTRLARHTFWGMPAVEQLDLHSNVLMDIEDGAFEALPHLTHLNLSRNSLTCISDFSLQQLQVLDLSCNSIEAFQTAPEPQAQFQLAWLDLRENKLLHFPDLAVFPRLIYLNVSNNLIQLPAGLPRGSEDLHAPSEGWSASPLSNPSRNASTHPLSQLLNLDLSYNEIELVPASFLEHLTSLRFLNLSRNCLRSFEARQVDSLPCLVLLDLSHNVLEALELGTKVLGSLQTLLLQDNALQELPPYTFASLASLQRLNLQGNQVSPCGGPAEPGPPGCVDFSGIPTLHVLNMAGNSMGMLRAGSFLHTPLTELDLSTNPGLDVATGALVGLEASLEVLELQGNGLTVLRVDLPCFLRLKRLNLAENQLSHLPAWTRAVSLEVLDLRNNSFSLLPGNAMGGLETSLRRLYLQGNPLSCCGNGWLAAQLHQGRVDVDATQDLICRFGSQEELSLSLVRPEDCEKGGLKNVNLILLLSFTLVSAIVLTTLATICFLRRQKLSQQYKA
Assay: flow cytometry on mouse platelets

binding: binds
Substance: mouse LAP (latency-associated peptide of mouse latent TGFβ) (from UniProt P04202 30-278) (ligand)
